Assay results from publication PMC9587031, “Antibiotic polymyxin arranges lipopolysaccharide into crystalline structures to solidify the bacterial membrane” (Nature Communications, 2022).
Some entries repeat one wording, which the source may state once for all of them. Positions of bridges follow the written chain, without caps; N, C: chain ends. Non-standard residues stand in square brackets, D forms with d. Residues, ends and D or L forms follow the SMILES beside them. *: point of attachment. Aha = [N-]=[N+]=NCC[C@H](N)C(=O)O; Heptanoyl(6-Me) = CC(C)CCCCC(=O)*; X1 = CC[C@H](C)CCCCC(=O)*; Dab = NCC[C@H](N)C(=O)O

Key:
[1] = test system: OM patches from E. coli MG1655 WT strain; experiment: AFM imaging of crystalline structure formation on OM patches; design: species or system Escherichia coli; conditions: OM patches MG1655 WT incubated with 50 mg/l of the polymyxin variant (Fig. 3), repeated at least three times
Method: E. coli MG1655 strains were transformed with the pY200 plasmid that carries an mCherry gene preceded by the periplasmic export signal of the skp protein under control of the lux promoter. This construct enables over-expression of mCherry into the periplasmic space, which in turn increases the OMV production. Cultures were grown in LB medium (Difco) with 50 µg/ml spectinomycin (Fischer Scientific) at 37 °C. Expression of mCherry was induced at an OD600 ≈ 0.4 by N-(β ketocaproyl)-L-homoserine lactone (HSL, Cayman Chemical). After induction, the cultures were grown until they reached the early stationary phase, and bacteria were removed by centrifugation at 10,000 g for 10 min. The supernatant was filtered through a 0.45 µm filter unit (Merck Millipore) for the removal of residual bacteria. The OMVs were collected from the filtered supernatant by centrifugation at 38,400 g for 1.5 h. The pellet was resuspended in 12 ml Dulbecco’s phosphate-buffered saline buffer supplemented with magnesium and calcium (Sigma-Aldrich), and collected by two rounds of ultracentrifugation at 100,000 g for 1 h each. In the last step, the OMVs were resuspended in 1 ml DPBS buffer, aliquoted, and stored at –80 °C.
OMVs produced from different E. coli MG1655 strains were adsorbed onto freshly cleaved mica for 15 min in DPBS buffer at room temperature. After adsorption, the sample was gently washed with fresh DPBS buffer for five times to remove non-adsorbed OMVs. Then OMVs were imaged using force-distance curve-based AFM (FD-based AFM) performed with an AFM (Nanoscope Multimode 8, Bruker) operated in PeakForce Tapping mode in buffer solution (DPBS) at room temperature. The AFM was equipped with a 120 μm piezoelectric J scanner and fluid cell. The images were recorded using two different AFM cantilevers: PEAKFORCE‐HiRs‐F‐A (Bruker) with a nominal spring constant of 0.4 N/m, a resonance frequency of ≈ 165 kHz in liquid, and a sharpened silicon tip with a nominal radius of ≈ 1 nm or SCANASYST-FLUID + (Bruker) with a nominal spring constant of 0.7 N/m, a resonance frequency of ≈ 150 kHz in liquid, and a sharpened silicon tip with a nominal radius of ≈ 2 nm. Before imaging, cantilevers were calibrated by ramping on the mica surface and the thermal tuning method. Images were recorded at 2 kHz oscillation frequency, by applying an imaging force of 100–120 pN with a vertical amplitude of 30 nm. The AFM was placed inside a home‐built acoustic isolated and temperature‐controlled box. Raw AFM images were processed using the AFM analysis software Nanoscope v.1.8 for levelling and flattening.
AFM images were transformed with an automated image analysis script that identifies and characterizes local features by their Fourier transformation (FT)[60]. The analysis applies a moving local window (32×32 pixels, step size:16 pixels) on AFM images, and for each local window, a 2D power spectrum FT is computed, followed by machine learning processing. First, the number of components/fractions in the data is determined by computing the principal component analysis scree plot. Secondly, the data is blindly decomposed into different interpretable components by non-negative matrix factorization. The analysis script is publicly available as a Python analysis notebook and program for batch processing at (10.17632/25x46xjyr5.2).
Processed AFM images were analyzed using ilastik software (version 1.4.0b13) for automated (supervised) pixel classification with trained classifiers. Classifier files are available upon request. Through classification, the probability maps of AFM images were generated and exported as.tif files. The probability maps were opened in Fiji (ImageJ2 v.2.3.0) to perform particle analysis on threshold-selected features. The distance comparison histograms were generated from particle analysis data using Python’s data visualization library seaborn (v.0.11.2).

[2] = test system: OM patches from E. coli MG1655 WT strain; experiment: AFM change in membrane area, height and volume of OM patches; design: species or system Escherichia coli; conditions: for Height of OM patch: Suppl. Fig. 9d; for Volume of OM patch: Suppl. Fig. 9e

CC(C)C[C@@H]1NC(=O)[C@@H](CC(C)C)NC(=O)[C@H](CCN)NC(=O)[C@@H](NC(=O)[C@H](CCN)NC(=O)[C@@H](NC(=O)[C@@H](N)CCN)[C@@H](C)O)CCNC(=O)[C@H]([C@@H](C)O)NC(=O)[C@H](CCN)NC(=O)[C@H](CCN)NC1=O [Polymyxin E intermediate-length] (H-[Dab]T[Dab][Dab][Dab][dL]L[Dab][Dab]T; lactam 4-C) was tested, and the “formation of crystalline structures” value [1] was “Crystalline structures are formed”.

In the case of CC(C)CCCCC(=O)N[C@@H](CCN)C(=O)N[C@H](C(=O)N[C@@H](CCN)C(=O)N[C@H]1CCNC(=O)[C@@H]([C@H](C)O)NC(=O)[C@H](CCN)NC(=O)[C@H](CCN)NC(=O)[C@H](CC(C)C)NC(=O)[C@@H](CC(C)C)NC(=O)[C@H](CCN)NC1=O)[C@@H](C)O [Polymyxin E with stereochemistry change] ({Heptanoyl(6-Me)}-[Dab]T[Dab][Dab][Dab][dL]L[Dab][Dab][dT]; lactam 4-C), the “formation of crystalline structures” value ([1]; listed as enantiomer variant Thr10 (L- > D)) is reported as “Crystalline structures are formed” and the “formation of crystalline structures” value ([1]; listed as polymyxin E analogue with a D-Thr10 residue) is reported as “induced the formation of crystalline structures”.

With CC(C)CCCCC(=O)N[C@@H](CCN)C(=O)N[C@H](C(=O)N[C@@H](CCN)C(=O)N[C@H]1CCNC(=O)[C@H]([C@@H](C)O)NC(=O)[C@H](CCN=[N+]=[N-])NC(=O)[C@H](CCN)NC(=O)[C@H](CC(C)C)NC(=O)[C@@H](CC(C)C)NC(=O)[C@H](CCN)NC1=O)[C@@H](C)O [Polymyxin E with charge change] ({Heptanoyl(6-Me)}-[Dab]T[Dab][Dab][Dab][dL]L[Dab][Aha]T; lactam 4-C) the “formation of crystalline structures” value [1] was “Structures are not formed”.

With CC(C)C[C@@H]1NC(=O)[C@@H](CC(C)C)NC(=O)[C@H](CCN)NC(=O)[C@@H](NC(=O)[C@H](CCN)NC(=O)[C@@H](N)[C@@H](C)O)CCNC(=O)[C@H]([C@@H](C)O)NC(=O)[C@H](CCN)NC(=O)[C@H](CCN)NC1=O [Polymyxin E nonapeptide] (H-T[Dab][Dab][Dab][dL]L[Dab][Dab]T; lactam 3-C) the “formation of crystalline structures” value [1] was “Structures are not formed” and the “formation of crystalline structures” value ([1]; listed as PMEN) was “did not”.

For CC[C@H](C)CCCCC(=O)N[C@@H](CCN)C(=O)N[C@H](C(=O)N[C@@H](CCN)C(=O)N[C@H]1CCNC(=O)[C@H]([C@@H](C)O)NC(=O)[C@H](CCN)NC(=O)[C@H](CCN)NC(=O)[C@H](CC(C)C)NC(=O)[C@@H](Cc2ccccc2)NC(=O)[C@H](CCN)NC1=O)[C@@H](C)O [Polymyxin B] (X1-[Dab]T[Dab][Dab][Dab][dF]L[Dab][Dab]T; lactam 4-C (inferred); N-terminus assumed), the “formation of crystalline structures” value [1] was “Crystalline structures are formed” and the “formation of crystalline structures” value ([1]; listed as PMB) was “induced crystalline structures”.

With CCCCCCCCCCCC[N+](C)(C)[O-] [LDAO, N, N-dimethyl-1-dodecanamine-N-oxide] the “Height of OM patch” value ([2]; LDAO 0.11 mg/l, Patch1, same patch at 0 mg/l 6.41) was 6.39 nm, the “Volume of OM patch” value ([2]; LDAO 0.11 mg/l, Patch1, same patch at 0 mg/l 1013254) was 1028307 nm^3 and the “Height of OM patch” value ([2]; LDAO 0.11 mg/l, Patch 2, same patch at 0 mg/l 6.53) was 6.34 nm. The “Volume of OM patch” value ([2]; LDAO 0.11 mg/l, Patch 2, same patch at 0 mg/l 496584) was 494754 nm^3, the “Height of OM patch” value ([2]; LDAO 0.11 mg/l, Patch 3, same patch at 0 mg/l 6.97) was 6.56 nm and the “Volume of OM patch” value ([2]; LDAO 0.11 mg/l, Patch 3, same patch at 0 mg/l 223104) was 236268 nm^3. The “Height of OM patch” value ([2]; LDAO 1.1 mg/l, Patch1, same patch at 0 mg/l 6.41) was 6.23 nm, the “Volume of OM patch” value ([2]; LDAO 1.1 mg/l, Patch1, same patch at 0 mg/l 1013254) was 1028280 nm^3 and the “Height of OM patch” value ([2]; LDAO 1.1 mg/l, Patch 2, same patch at 0 mg/l 6.53) was 6.27 nm. For the same compound, the “Volume of OM patch” value ([2]; LDAO 1.1 mg/l, Patch 2, same patch at 0 mg/l 496584) was 495093 nm^3, the “Height of OM patch” value ([2]; LDAO 1.1 mg/l, Patch 3, same patch at 0 mg/l 6.97) was 6.44 nm and the “Volume of OM patch” value ([2]; LDAO 1.1 mg/l, Patch 3, same patch at 0 mg/l 223104) was 238391 nm^3. For the same compound, the “Height of OM patch” value ([2]; LDAO 11.5 mg/l, Patch1, same patch at 0 mg/l 6.41) was 5.91 nm, the “Volume of OM patch” value ([2]; LDAO 11.5 mg/l, Patch1, same patch at 0 mg/l 1013254) was 1027992 nm^3 and the “Height of OM patch” value ([2]; LDAO 11.5 mg/l, Patch 2, same patch at 0 mg/l 6.53) was 6.23 nm. The “Volume of OM patch” value ([2]; LDAO 11.5 mg/l, Patch 2, same patch at 0 mg/l 496584) was 597600 nm^3, the “Height of OM patch” value ([2]; LDAO 11.5 mg/l, Patch 3, same patch at 0 mg/l 6.97) was 6.55 nm and the “Volume of OM patch” value ([2]; LDAO 11.5 mg/l, Patch 3, same patch at 0 mg/l 223104) was 274932 nm^3. The “Height of OM patch” value ([2]; LDAO 115 mg/l, Patch1, same patch at 0 mg/l 6.41) was 5.68 nm, the “Volume of OM patch” value ([2]; LDAO 115 mg/l, Patch1, same patch at 0 mg/l 1013254) was 1844375 nm^3 and the “Height of OM patch” value ([2]; LDAO 115 mg/l, Patch 2, same patch at 0 mg/l 6.53) was 6.14 nm. The “Volume of OM patch” value ([2]; LDAO 115 mg/l, Patch 2, same patch at 0 mg/l 496584) was 939114 nm^3, the “Height of OM patch” value ([2]; LDAO 115 mg/l, Patch 3, same patch at 0 mg/l 6.97) was 6.38 nm and the “Volume of OM patch” value ([2]; LDAO 115 mg/l, Patch 3, same patch at 0 mg/l 223104) was 408128 nm^3. For the same compound, the “increase in area of OM patches” value ([2]; detergent concentration 11.5 mg/l, DPBS, n = 3 OM patches) was “around two-fold” and the “maximal decrease in membrane height” value ([2]; increasing LDAO concentrations, DPBS, n = 3 OM patches) was “≈ 9%”.

In the case of CC(C)C[C@@H]1NC(=O)[C@@H](Cc2ccccc2)NC(=O)[C@H](CCN)NC(=O)[C@@H](NC(=O)[C@H](CCN)NC(=O)[C@@H](N)[C@@H](C)O)CCNC(=O)[C@H]([C@@H](C)O)NC(=O)[C@H](CCN)NC(=O)[C@H](CCN)NC1=O [Polymyxin B nonapeptide] (H-T[Dab][Dab][Dab][dF]L[Dab][Dab]T; lactam 3-C (inferred); N-terminus assumed), the “formation of crystalline structures” value [1] is reported as “Crystalline structures are formed” and the “formation of crystalline structures” value ([1]; listed as PMBN) is reported as “induced crystalline structures”.
